From the supplement of paper PMC10849652
The other results are listed elsewhere or left out.

Protein sequences, listed by entry. Tags and fused reporters are not part of them. Lines headed by an entry give the natural chain unless they say otherwise; changes in a name come on top.
UniProt Q86VV8: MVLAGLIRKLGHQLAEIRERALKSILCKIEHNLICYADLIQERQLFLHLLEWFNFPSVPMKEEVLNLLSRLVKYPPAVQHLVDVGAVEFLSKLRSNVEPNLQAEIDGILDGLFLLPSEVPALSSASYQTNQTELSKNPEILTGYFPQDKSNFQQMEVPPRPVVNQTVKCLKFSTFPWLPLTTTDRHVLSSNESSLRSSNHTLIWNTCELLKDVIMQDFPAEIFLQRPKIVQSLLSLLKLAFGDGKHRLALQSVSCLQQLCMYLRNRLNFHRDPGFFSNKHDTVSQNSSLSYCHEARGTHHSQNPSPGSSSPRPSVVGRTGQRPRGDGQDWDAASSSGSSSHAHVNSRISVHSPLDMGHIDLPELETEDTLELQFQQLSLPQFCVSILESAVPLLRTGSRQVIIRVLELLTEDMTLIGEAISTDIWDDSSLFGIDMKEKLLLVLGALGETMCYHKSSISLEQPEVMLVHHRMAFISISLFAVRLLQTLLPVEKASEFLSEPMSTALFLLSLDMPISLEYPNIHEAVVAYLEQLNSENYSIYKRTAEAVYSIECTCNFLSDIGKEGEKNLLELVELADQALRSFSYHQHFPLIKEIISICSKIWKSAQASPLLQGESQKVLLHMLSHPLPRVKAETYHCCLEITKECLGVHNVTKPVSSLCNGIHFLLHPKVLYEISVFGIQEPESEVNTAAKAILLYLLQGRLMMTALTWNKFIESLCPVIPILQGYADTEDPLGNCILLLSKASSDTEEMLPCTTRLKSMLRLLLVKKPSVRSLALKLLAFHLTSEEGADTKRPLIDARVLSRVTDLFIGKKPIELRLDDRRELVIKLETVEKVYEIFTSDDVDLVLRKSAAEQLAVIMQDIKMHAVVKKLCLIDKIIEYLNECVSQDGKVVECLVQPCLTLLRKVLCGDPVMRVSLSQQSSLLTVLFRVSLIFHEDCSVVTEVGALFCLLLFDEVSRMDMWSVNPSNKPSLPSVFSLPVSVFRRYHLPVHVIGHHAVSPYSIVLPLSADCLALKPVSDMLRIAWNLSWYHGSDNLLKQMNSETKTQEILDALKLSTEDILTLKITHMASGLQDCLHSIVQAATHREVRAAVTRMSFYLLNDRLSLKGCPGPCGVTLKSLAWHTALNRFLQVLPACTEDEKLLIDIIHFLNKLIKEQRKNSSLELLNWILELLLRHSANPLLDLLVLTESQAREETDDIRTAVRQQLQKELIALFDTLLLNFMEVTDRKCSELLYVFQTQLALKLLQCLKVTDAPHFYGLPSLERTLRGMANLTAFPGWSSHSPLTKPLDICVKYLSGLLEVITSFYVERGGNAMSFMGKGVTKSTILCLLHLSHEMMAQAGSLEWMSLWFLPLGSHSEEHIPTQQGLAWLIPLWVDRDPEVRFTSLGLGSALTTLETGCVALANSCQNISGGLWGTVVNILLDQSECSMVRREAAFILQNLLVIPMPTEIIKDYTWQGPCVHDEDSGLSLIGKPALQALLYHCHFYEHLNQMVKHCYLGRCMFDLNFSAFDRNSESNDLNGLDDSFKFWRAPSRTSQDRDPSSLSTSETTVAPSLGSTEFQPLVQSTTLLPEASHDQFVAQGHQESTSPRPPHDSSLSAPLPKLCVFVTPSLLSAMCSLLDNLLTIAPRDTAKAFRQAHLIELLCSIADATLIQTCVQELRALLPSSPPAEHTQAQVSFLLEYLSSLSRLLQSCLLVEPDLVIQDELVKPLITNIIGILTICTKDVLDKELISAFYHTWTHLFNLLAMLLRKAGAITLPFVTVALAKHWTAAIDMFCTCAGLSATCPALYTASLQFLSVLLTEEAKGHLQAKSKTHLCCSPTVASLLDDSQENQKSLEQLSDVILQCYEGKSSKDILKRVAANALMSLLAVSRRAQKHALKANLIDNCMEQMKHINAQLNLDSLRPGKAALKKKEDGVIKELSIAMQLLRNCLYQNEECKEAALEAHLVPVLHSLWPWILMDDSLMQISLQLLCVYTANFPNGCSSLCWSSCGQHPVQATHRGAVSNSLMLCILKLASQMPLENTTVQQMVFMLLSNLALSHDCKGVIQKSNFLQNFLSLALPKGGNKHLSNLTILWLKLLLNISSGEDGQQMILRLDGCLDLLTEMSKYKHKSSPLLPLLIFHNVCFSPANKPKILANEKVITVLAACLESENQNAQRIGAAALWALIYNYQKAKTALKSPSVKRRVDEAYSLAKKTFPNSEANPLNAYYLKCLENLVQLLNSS
UniProt P31949: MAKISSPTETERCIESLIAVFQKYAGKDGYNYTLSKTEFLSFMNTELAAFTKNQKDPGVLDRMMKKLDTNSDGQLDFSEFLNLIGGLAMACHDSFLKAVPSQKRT
UniProt Q9H446: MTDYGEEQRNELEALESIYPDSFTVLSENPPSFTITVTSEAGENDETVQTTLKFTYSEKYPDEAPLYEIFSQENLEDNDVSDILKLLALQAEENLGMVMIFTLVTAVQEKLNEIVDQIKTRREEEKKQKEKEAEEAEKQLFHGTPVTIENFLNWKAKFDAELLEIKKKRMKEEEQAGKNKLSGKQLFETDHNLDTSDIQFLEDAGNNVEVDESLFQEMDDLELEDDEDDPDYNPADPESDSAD
UniProt O00442: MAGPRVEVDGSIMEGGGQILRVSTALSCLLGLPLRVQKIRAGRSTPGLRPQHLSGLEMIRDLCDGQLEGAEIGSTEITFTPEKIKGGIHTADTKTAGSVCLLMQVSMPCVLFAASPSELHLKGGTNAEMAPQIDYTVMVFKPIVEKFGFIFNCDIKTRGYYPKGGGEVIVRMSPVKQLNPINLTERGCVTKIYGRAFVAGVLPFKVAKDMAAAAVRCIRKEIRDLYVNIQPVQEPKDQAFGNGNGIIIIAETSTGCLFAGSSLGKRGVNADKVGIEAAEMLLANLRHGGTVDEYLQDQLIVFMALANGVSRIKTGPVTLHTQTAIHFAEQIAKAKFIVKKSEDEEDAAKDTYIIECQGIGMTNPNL
UniProt Q7L3V2: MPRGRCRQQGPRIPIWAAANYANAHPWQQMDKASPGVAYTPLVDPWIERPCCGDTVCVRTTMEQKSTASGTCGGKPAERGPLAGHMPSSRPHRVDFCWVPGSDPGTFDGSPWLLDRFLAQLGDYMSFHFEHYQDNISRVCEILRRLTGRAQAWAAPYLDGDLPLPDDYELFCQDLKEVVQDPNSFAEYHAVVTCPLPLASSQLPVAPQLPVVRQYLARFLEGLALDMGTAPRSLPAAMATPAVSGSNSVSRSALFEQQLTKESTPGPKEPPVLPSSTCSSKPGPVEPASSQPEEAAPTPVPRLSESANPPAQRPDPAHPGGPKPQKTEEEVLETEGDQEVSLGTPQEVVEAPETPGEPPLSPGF
UniProt P56182: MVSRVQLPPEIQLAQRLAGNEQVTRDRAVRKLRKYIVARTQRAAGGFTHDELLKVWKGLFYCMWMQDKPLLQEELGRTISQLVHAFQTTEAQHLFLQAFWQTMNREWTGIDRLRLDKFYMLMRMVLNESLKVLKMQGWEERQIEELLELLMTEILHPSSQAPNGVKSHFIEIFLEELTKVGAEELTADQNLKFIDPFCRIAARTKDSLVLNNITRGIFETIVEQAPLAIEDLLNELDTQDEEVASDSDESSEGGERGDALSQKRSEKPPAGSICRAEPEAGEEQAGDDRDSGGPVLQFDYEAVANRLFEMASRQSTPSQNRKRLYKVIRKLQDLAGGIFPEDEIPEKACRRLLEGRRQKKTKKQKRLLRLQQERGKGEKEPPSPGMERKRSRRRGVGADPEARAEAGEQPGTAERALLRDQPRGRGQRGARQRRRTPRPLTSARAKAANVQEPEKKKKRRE
UniProt P23443: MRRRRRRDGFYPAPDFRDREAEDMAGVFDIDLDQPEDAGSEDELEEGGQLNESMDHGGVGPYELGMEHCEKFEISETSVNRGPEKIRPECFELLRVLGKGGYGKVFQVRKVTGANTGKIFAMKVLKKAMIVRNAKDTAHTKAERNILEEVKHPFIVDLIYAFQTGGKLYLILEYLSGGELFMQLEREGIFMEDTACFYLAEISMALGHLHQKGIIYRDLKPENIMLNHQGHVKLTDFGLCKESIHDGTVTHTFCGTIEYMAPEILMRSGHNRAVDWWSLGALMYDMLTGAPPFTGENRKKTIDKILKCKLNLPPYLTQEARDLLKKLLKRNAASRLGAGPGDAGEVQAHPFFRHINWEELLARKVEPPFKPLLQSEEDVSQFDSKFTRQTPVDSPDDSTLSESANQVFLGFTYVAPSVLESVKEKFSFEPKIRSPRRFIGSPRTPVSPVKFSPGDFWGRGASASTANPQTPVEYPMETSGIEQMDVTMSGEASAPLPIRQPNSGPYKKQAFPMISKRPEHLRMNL
UniProt Q99584: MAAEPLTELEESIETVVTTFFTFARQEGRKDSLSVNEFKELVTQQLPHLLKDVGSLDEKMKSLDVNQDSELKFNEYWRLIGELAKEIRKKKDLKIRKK
UniProt Q9NYV6: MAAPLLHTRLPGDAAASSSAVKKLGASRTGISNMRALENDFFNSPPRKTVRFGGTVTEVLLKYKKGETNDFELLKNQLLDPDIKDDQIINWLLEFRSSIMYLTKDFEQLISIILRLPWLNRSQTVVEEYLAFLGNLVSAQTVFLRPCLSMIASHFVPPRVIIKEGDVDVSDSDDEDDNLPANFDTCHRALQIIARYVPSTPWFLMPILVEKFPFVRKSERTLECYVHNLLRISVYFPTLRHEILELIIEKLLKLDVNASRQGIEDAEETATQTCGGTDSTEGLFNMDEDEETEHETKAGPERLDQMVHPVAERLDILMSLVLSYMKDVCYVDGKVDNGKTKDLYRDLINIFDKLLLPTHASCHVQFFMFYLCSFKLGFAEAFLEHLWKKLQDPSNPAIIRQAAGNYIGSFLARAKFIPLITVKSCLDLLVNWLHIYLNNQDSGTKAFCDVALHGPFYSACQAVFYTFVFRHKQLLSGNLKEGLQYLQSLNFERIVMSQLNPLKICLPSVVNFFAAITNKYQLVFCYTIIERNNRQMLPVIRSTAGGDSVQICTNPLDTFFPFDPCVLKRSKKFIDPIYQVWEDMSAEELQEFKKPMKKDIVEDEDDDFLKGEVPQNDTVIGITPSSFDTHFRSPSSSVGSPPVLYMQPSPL
UniProt Q15418, whole entry, looked up: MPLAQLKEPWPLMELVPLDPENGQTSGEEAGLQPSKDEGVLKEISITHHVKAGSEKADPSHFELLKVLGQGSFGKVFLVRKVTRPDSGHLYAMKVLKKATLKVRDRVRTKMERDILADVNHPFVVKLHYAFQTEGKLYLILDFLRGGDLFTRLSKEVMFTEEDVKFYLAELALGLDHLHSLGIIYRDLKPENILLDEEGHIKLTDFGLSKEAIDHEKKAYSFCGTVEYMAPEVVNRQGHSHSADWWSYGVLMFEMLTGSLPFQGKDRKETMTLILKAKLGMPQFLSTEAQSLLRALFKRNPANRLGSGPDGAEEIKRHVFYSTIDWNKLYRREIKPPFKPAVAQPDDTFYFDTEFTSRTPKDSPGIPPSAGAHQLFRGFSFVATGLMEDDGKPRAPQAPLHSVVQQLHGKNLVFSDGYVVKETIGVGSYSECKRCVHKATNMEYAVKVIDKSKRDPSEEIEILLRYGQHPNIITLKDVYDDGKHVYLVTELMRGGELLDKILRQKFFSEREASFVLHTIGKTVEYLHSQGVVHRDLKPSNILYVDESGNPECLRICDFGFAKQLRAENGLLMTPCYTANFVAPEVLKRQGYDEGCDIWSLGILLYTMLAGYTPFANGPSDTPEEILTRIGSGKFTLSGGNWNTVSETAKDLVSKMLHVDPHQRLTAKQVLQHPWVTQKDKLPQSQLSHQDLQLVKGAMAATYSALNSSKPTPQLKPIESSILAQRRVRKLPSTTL
UniProt Q15404: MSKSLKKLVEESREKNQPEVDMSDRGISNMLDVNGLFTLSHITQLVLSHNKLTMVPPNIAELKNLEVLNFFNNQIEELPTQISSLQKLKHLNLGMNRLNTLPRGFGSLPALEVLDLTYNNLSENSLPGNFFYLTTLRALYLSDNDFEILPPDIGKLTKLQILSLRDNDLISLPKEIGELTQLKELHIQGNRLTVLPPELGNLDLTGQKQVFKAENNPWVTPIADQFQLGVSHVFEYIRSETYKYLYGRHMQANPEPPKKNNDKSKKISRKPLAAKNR
UniProt Q9HB90, whole entry, looked up: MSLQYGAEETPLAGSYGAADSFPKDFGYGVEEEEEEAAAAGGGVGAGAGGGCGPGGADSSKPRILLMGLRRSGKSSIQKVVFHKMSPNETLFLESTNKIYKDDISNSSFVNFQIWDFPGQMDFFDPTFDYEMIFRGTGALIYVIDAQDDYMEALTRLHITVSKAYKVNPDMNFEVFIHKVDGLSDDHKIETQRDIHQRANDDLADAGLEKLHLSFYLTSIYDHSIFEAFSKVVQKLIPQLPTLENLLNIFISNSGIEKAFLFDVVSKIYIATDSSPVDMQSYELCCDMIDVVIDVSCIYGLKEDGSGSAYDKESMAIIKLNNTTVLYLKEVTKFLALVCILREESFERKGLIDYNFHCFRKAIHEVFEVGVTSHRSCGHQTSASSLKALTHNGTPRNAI

Tests used:
Assay in all cases: log2 fold change, soluble protein after heating vs DMSO (PISA); higher = thermal stabilisation; K562 lysate, 10 uM; active = over 0.2 and 3.5 SD of the protein, either way, in both replicates (recomputed)
[1] = compound: C1=CC=C(C=C1)[C@H](COC2=CC3=C(C=C2)NC(=O)N3)NC(=O)C4=CC=CN(C4=O)CC5=CC(=C(C=C5)F)F
In short: (§1)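 A 30 min treatment with 10 μM compound was applied to crude K562 extract at 1 mg/mL protein in PBS pH 7.4 with 1 mM MgCl2. Heating for 3 min spanned 48°C-58°C, after which aliquots were pooled, adjusted to 0.5% NP-40 at 4°C and spun at 21,000xg for 90 min. TMTpro 16plex LC-MS/MS of the supernatant, with channel sums equalised, gave values recorded as log-two fold change in thermal stability against solvent controls, from duplicates.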

[2] = compound: CC1=C(SC2=C1C(=N[C@H](C3=NN=C(N32)C)CC(=O)N)C4=CC=C(C=C4)Cl)C
In short: as §1

[3] = compound: CC1=C2C(=CC=C1)N=C(N(C2=O)C3=CC=CC=C3C)CN4C=NC5=C(N=CN=C54)N
In short: as §1

[4] = compound: Cc1sc2c(c1C)C(c1ccc(Cl)cc1)=N[C@@H](CC(=O)OC(C)(C)C)c1nnc(C)n1-2
In short: as §1

[5] = compound: c1ccc([C@@H]2C[C@H]2NC2CCNCC2)cc1
In short: as §1

Measured: log2 fold change

RTF1 (UniProt Q92541)
inactive: [1] -0.004 | [2] 0.006 | [3] 0.015 | [4] -0.017 | [5] 0.021

RPS18 (UniProt P62269)
inactive: [1] -0.009 | [2] 0.046 | [3] 0.024 | [4] -0.003 | [5] -0.075

RPS11 (UniProt P62280)
inactive: [1] -0.006 | [2] 0.022 | [3] -0.005 | [4] -0.006 | [5] 0.029

RPS14 (UniProt P62263)
inactive: [1] 0.018 | [2] 0.003 | [3] 0.042 | [4] 0.003 | [5] -0.019

RTN3 (UniProt O95197)
inactive: [1] -0.02 | [2] -0.009 | [3] 0.019 | [4] -0.036 | [5] -0.071

RTTN (UniProt Q86VV8)
inactive: [1] 0.089 | [2] -0.033 | [3] -0.289 | [4] 0.046 | [5] 0.024

S100A11 (UniProt P31949)
inactive: [1] 0.029 | [2] -0.075 | [3] -0.002 | [4] -0.029 | [5] -0.005

RPS15A (UniProt P62244)
inactive: [1] 0.013 | [2] 0.018 | [3] 0.021 | [4] 0.058 | [5] 0.035

RPRD1A (UniProt Q96P16)
inactive: [1] 0.027 | [2] 0.064 | [3] 0.028 | [4] -0.084 | [5] 0.012

RWDD1 (UniProt Q9H446)
inactive: [1] 0.045 | [2] 0.008 | [3] 0 | [4] 0.019 | [5] -0.001

2 neighbouring entries out of the list so far:
RPRD1A (UniProt Q96P16)
inactive: [1] 0.027 | [2] 0.064 | [3] 0.028 | [4] -0.084 | [5] 0.012

RWDD1 (UniProt Q9H446)
inactive: [1] 0.045 | [2] 0.008 | [3] 0 | [4] 0.019 | [5] -0.001

(cont.)

RTCA (UniProt O00442)
inactive: [1] 0.034 | [2] 0.028 | [3] -0.01 | [4] 0.026 | [5] -0.014

RTL10 (UniProt Q7L3V2)
inactive: [1] -0.15 | [2] -0.213 | [3] 0.011 | [4] -0.073 | [5] 0.019

RPL36AL (UniProt Q969Q0)
inactive: [1] 0.074 | [2] -0.049 | [3] -0.03 | [4] 0.274 | [5] 0.015

RPL8 (UniProt P62917)
inactive: [1] -0.012 | [2] -0.036 | [3] -0.031 | [4] 0.066 | [5] 0.032

RTN4 isoform 5 (UniProt Q9NQC3)
inactive: [1] -0.064 | [2] -0.056 | [3] -0.246 | [4] 0.007 | [5] -0.261

RPS19 (UniProt P39019)
inactive: [1] -0.024 | [2] 0.017 | [3] -0.037 | [4] 0.044 | [5] 0.026

RRP1 (UniProt P56182)
inactive: [1] -0.045 | [2] -0.003 | [3] 0.001 | [4] 0.033 | [5] 0.047

RPS6KB1 (UniProt P23443)
inactive: [1] 0.029 | [2] -0.051 | [3] 0.027 | [4] 0.023 | [5] -0.018

S100A13 (UniProt Q99584)
inactive: [1] 0.05 | [2] 0.003 | [3] 0.002 | [4] -0.019 | [5] 0.002

RRN3 (UniProt Q9NYV6)
inactive: [1] -0.171 | [2] -0.06 | [3] 0.098 | [4] -0.223 | [5] 0.027

RPS6KA1 (UniProt Q15418)
inactive: [1] -0.073 | [2] -0.064 | [3] -0.045 | [4] 0.015 | [5] -0.047

RPRD1B (UniProt Q9NQG5)
inactive: [1] -0.022 | [2] 0.032 | [3] -0.077 | [4] 0.012 | [5] 0.016

RSU1 (UniProt Q15404)
inactive: [1] 0.056 | [2] 0.004 | [3] -0.004 | [4] -0.017 | [5] 0.157

RRAGC (UniProt Q9HB90)
inactive: [1] -0.001 | [2] 0.032 | [3] 0.004 | [4] -0.001 | [5] 0.026
